The text below walks through data of PMC6726635.

The chains behind the UniProt entries cited, without tags or fusion partners.
UniProt P16671: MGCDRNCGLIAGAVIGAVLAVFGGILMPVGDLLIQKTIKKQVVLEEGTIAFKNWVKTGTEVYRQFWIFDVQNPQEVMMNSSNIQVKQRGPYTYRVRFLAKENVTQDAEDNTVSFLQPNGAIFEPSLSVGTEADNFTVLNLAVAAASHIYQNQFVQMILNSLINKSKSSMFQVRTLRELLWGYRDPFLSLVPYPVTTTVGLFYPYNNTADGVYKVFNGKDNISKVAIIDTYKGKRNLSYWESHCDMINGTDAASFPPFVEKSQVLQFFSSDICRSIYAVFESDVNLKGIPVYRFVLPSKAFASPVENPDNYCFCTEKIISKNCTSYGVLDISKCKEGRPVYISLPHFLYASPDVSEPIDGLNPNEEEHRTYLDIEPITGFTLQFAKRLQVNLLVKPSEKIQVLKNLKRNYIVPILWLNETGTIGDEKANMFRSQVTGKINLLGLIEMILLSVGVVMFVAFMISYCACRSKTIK

No constants are given. Whether binding was seen depends on the method and setting. Binding seen in cells or lysates may run through a third protein. Some binding calls cover weakened binding; strength is not graded here.

The target in assay [1] is T1, Glypican 4 (GPC4), endogenous (human (endogenous in SW480, LoVo, RKO and CACO2)) (UniProt O75487).
T1 sequence: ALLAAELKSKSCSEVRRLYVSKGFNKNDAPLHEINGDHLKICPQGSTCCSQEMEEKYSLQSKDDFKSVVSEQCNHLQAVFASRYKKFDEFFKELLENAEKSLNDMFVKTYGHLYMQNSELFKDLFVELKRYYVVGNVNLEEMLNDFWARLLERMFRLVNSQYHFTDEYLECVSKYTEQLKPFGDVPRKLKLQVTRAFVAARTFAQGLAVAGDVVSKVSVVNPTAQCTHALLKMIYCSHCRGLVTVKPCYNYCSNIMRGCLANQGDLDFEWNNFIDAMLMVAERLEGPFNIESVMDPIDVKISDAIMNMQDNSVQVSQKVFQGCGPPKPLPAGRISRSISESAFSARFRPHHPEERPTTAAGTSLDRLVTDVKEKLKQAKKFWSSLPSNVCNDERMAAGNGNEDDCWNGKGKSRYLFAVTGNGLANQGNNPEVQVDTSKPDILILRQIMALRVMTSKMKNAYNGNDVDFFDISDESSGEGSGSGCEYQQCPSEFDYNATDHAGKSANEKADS
As to the kind of experiment: co-IP; reciprocal; anti-GPC4 IP of cell lysates, IgG as negative control; antibody overnight at 4 C, protein A/G magnetic beads, washed with PBS; western blot for CD36.

Assay [2] deals with CD36, endogenous (human (endogenous in RKO and CACO2)) (UniProt P16671). As to the kind of experiment: co-IP; endogenous; anti-CD36 IP of RKO and CACO2 cell lysates, IgG as negative control; antibody overnight at 4 C, protein A/G magnetic beads, washed with PBS; western blot for GPC4.
In assay [3] the target is Flag-tagged CD36 (LV-CD36) (UniProt P16671). As to the kind of experiment: co-IP; anti-Flag IP of SW480 and LoVo LV-CD36 cell lysates against anti-IgG IP; 100 ug lysate protein, antibody overnight at 4 C, protein A/G magnetic beads 5 h at 4 C, washed four times with PBS; western blot for GPC4.

Consider “CD36, endogenous (from UniProt P16671 1-472)”, for which the binding result in assay [1] was “binds”.

B1: Glypican 4 (GPC4), endogenous (protein, UniProt O75487 19-529)
chain: ALLAAELKSKSCSEVRRLYVSKGFNKNDAPLHEINGDHLKICPQGSTCCSQEMEEKYSLQSKDDFKSVVSEQCNHLQAVFASRYKKFDEFFKELLENAEKSLNDMFVKTYGHLYMQNSELFKDLFVELKRYYVVGNVNLEEMLNDFWARLLERMFRLVNSQYHFTDEYLECVSKYTEQLKPFGDVPRKLKLQVTRAFVAARTFAQGLAVAGDVVSKVSVVNPTAQCTHALLKMIYCSHCRGLVTVKPCYNYCSNIMRGCLANQGDLDFEWNNFIDAMLMVAERLEGPFNIESVMDPIDVKISDAIMNMQDNSVQVSQKVFQGCGPPKPLPAGRISRSISESAFSARFRPHHPEERPTTAAGTSLDRLVTDVKEKLKQAKKFWSSLPSNVCNDERMAAGNGNEDDCWNGKGKSRYLFAVTGNGLANQGNNPEVQVDTSKPDILILRQIMALRVMTSKMKNAYNGNDVDFFDISDESSGEGSGSGCEYQQCPSEFDYNATDHAGKSANEKADS
Take B1: the binding entry in assay [2] and in assay [3] was “binds” each time.
